Data as given in the supplement of paper PMC7024190.
The other results are listed elsewhere or left out. Single values are uncertain here, since repeats match poorly.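 A first-round screen of about ten thousand compounds sought those raising reporter output, using human embryonic kidney cells briefly transfected with a plasmid carrying a Renilla luciferase gene driven by the HSV-TK promoter.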

These compounds were tested on HEK 293FT (assay: log relative Renilla luciferase luminescence (reporter expression vs reference, reference not stated) (log (base not stated)); higher = higher recombinant reporter expression). Details: 10 µM; time after transfection 48 h.
Method: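 HEK 293FT cells transiently transfected with pRL-TK (Renilla luciferase) were treated with compounds at 10 uM and luminescence was read about 42 h later. Values are log relative Renilla luminescence (log base and reference not stated). Single-pass screen; 2080 natural products library.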

Row | SMILES | log
1 | O=C(O)CCCCCCCCC(=O)O [Decanedioic acid] | 0.245
2 | C=C1C(=O)O[C@H]2C[C@@]3(C)O[C@@H]3CC[C@@]3(C)O[C@@H]3C[C@H]12 [11(13)-Dehydroivaxillin] | -0.117
3 | O=C1C=C[C@]2(O)CCO[C@@H]2C1 [Cleroindicin F] | -0.0297
4 | C[C@@H]1CN2[C@H]3[C@@H]1CC[C@]31CCC(=O)O[C@]1(C)[C@H]1CC[C@H]3CCC=C3[C@@H]12 [Deoxycalyciphylline B] | 0.125
5 | CC(C)=CCc1c(O)ccc2c1O[C@H]1c3ccc(O)cc3OC[C@@H]21 [Phaseollidin] | 0.13
6 | Oc1cc(O)c2c(c1)O[C@H](c1cc(O)c(O)c(O)c1)[C@H](O)C2 [3,3',4',5,5',7-Hexahydroxyflavan] | 0.272
7 | COc1ccc(-c2cc(=O)c3c(O)c(OC)c(OC)cc3o2)cc1 [Salvigenin] | 0.198
8 | O=C1C[C@@H](c2ccccc2)Oc2cc(O)cc(O)c21 [Pinocembrin] | -0.279
9 | COc1cc(/C=C/C(=O)O[C@H]2CC[C@@]3(C)C(CC[C@]4(C)C3C=C[C@]35OC(=O)[C@@]6(CCC(C)[C@H](C)C63)CC[C@]54C)C2(C)C)ccc1O (stereo not given in full) [Tereticornate A] | 0.0366
10 | CC(C)[C@H]1CC[C@@H]2[C@]1(C)CC[C@]1(C)C3=CC[C@H]4C(C)(C)C(=O)[C@]3(CC[C@@]21C)[C@@]4(C)CC(=O)O [Alstonic acid B] | -0.0248
11 | COc1cc(-c2oc3c(O)c(OC)cc(OC)c3c(=O)c2OC)cc(OC)c1OC [8-Hydroxy-3,5,7,3',4',5'-hexamethoxyflavone] | -0.127
12 | COc1cc(OC/C=C(\C)CCC=C(C)C)cc2oc(=O)ccc12 [7-Geranyloxy-5-methoxycoumarin] | -0.324
13 | C/C(=C\C(=O)CC(C)C)[C@H]1CC=C(C(=O)O)CC1 [9-Oxo-2,7-bisaboladien-15-oic acid] | -0.00651
14 | CC(=O)Oc1ccc(-c2oc3cc(OC(C)=O)cc(OC(C)=O)c3c(=O)c2OC(C)=O)cc1 [Kaempferol tetraacetate] | -0.386
15 | CCOC(=O)c1ccc(O)cc1 [Ethylparaben] | -0.00168
16 | Cc1coc2c1C(=O)C(=O)c1c-2ccc2c(C)cccc12 [Tanshinone I] | -0.571
17 | COC(=O)C1C(O)CCC2CN3CCc4c([nH]c5ccccc45)C3CC21 (stereo not drawn) [beta-Yohimbine] | 0.14
18 | C=C(C)[C@@H]1CC[C@]2(C)CC[C@]3(C)[C@H](CC[C@@H]4[C@@]5(C)CC[C@H](O)C(C)(C)[C@@H]5CC[C@]43C)[C@@H]12 [Lupeol] | -0.172
19 | COc1cc([C@@H]2Oc3cc(/C=C/CO)cc(OC)c3O[C@H]2CO)cc(OC)c1O [Nitidanin] | 0.138
20 | C=C1CC[C@@H](O)[C@]2(C)CC[C@H]3C(=C)C(=O)O[C@@H]3[C@@H]12 [Reynosin] | -0.632

2 records picked at random from those above:
Row | SMILES | log
1 | O=C(O)CCCCCCCCC(=O)O [Decanedioic acid] | 0.245
3 | O=C1C=C[C@]2(O)CCO[C@@H]2C1 [Cleroindicin F] | -0.0297

The listing continues:

Row | SMILES | log
21 | C[C@H](CC[C@@H](O)C(C)(C)O)[C@H]1CC[C@@]2(C)C3=CC[C@H]4C(C)(C)C(=O)CC[C@]4(C)C3=CC[C@]12C [Ganodermanondiol] | 0.143
22 | O=Cc1ccc(O)c(O)c1 [3,4-Dihydroxybenzaldehyde] | -0.619
23 | O=C1c2c(O)cc(O)cc2OC(c2ccc(O)c(O)c2)C1O (stereo not given) [Taxifolin] | 0.062
24 | C=C(CO)[C@@H]1CC[C@H]2[C@]3(CC[C@]4(C)[C@@H]([C@H](C)CC[C@@H](O)C(C)(C)O)CC[C@@]24C)C[C@]13CCC(=O)O [Secaubrytriol] | -0.0564
25 | CC(C)=CCC[C@](C)(O)[C@H]1CC[C@]2(C)[C@@H]1CC[C@@H]1[C@@]3(C)CCC(=O)C(C)(C)[C@@H]3CC[C@]12C [Dipterocarpol] | 0.0294
26 | C=C1CC[C@H]2C(C)(C)CCC[C@]2(C)[C@H]1/C=C/C(C)=O [15,16-Dinor-8(17),11-labdadien-13-one] | 0.164
27 | C=CC(C)(O)CCC(O)C(C)(C)O (stereo not given) [2,6-Dimethyl-7-octene-2,3,6-triol] | 0.282
28 | C[C@@H]1CC[C@]2(C(=O)O)CC[C@]3(C)C(=CC[C@@H]4[C@@]5(C)C[C@@H](O)[C@H](O)C(C)(C)[C@@H]5CC[C@]43C)[C@@H]2[C@]1(C)O [Tormentic acid] | -0.129
29 | O=C1CC(c2c(O)cccc2O)Oc2cc(O)cc(O)c21 (stereo not given) [2',5,6',7-Tetrahydroxyflavanone] | 0.0405
30 | COc1cc(C[C@@H](C)[C@H](C)Cc2ccc(O)c(OC)c2)ccc1O [Dihydroguaiaretic acid] | -0.148
31 | COc1cc2oc(-c3ccc(O)cc3)c(OC)c(=O)c2c(O)c1OC [Penduletin] | -0.106
32 | COC(=O)c1ncc(OC)c2c1[nH]c1ccccc12 [4-Methoxy-1-methoxycarbonyl-beta-carboline] | 0.0924
33 | O=c1cc(CO)oc2cc3occc3c(O)c12 [Norkhellol] | 0.0294
34 | COc1cc([C@H]2c3cc(O)c(OC)cc3C[C@H]3COC(C)(C)OC[C@@H]32)ccc1O [9,9'-O-isopropyllidene-isolariciresinol] | -0.0748
35 | COc1c(O)cc(O)c2c(=O)cc(-c3ccc(O)cc3)oc12 [4'-Hydroxywogonin] | -0.499
36 | CCCCCCCCCCCCCCCCCCCCCCCCCCCC(=O)OCCc1ccc(O)cc1 [Bongardol] | -0.142
37 | CC[C@H](CC[C@@H](C)[C@H]1C(O)C[C@H]2[C@@H]3C(O)C=C4CC(O)CC[C@]4(C)[C@H]3CC[C@]12C)C(C)C (stereo not given in full) [3,7,16-Trihydroxystigmast-5-ene] | -0.125
38 | CC1=C[C@H](O)CC(C)(C)[C@H]1/C=C/C(C)=C/C=C/C(C)=C/C=C/C=C(C)/C=C/C=C(C)/C=C/C1=C(C)C[C@@H](O)CC1(C)C [Lutein] | 0.143
39 | CC1(C)CC(=O)C(C)(C)CC1=O [2,2,5,5-Tetramethylcyclohexane-1,4-dione] | -0.0581
40 | O=C1C[C@@H](c2ccc(O)cc2)Oc2cc(O)cc(O)c21 [Naringenin] | 0.103
